# Laboratory results: article PMC4476799, “Englerin A Agonizes the TRPC4/C5 Cation Channels to Inhibit Tumor Cell Line Proliferation” (PLoS ONE, 2015)
# This continues a long series; more values of the same kind are listed elsewhere.
# Test system: cancer cell lines from the cancer cell line encyclopedia (CCLE)
# Experiment: Cell line profiling (CLiP) proliferation experiment
# Format: cell-based
# Parameters: ACTIVITY_AREA: scale not given here; AMAX: unit not given here
# Experimental: Compound profiling experiment and data analysis was performed as previously described. Data was imported and plotted using the Tibco Spotfire DXP application. Lines were categorized as sensitive, intermediate and refractory as follows: Amax<-40 & Inflection Point <2 ~ Sensitive, Amax>-20 & Inflection Point >10 ~ Refractory, all else were called Intermediate. Cancer Cell line HG-U133 Plus 2 data was processed and normalized as described. […] Five sets of refractory cell lines were generated from the pool of refractory cell lines trying to match the lineage composition of the set of sensitive cell lines. The limma package was used as previously described to perform the statistical comparison.
# [1] = SUP-M2 (haematopoietic_and_lymphoid_tissue, anaplastic_large_cell_lymphoma)
# [2] = SW48 (large_intestine, adenocarcinoma)
# [3] = SW480 (large_intestine, adenocarcinoma)
# [4] = SW620 (large_intestine, adenocarcinoma)
# [5] = SW837 (large_intestine, adenocarcinoma)
# [6] = SW948 (large_intestine, adenocarcinoma)
# [7] = SW 1088 (central_nervous_system)
# [8] = SW 1088 (central_nervous_system, NS)
# [9] = SW 1271 (lung, small_cell_carcinoma)
# [10] = SW1417 (large_intestine, adenocarcinoma)
# [11] = SW 1573 (lung, squamous_cell_carcinoma)
# [12] = SW 1783 (central_nervous_system, astrocytoma_Grade_III)
# [13] = SW 1990 (pancreas, ductal_carcinoma)
# [14] = Set-2 (haematopoietic_and_lymphoid_tissue)
# [15] = T24 (urinary_tract, transitional_cell_carcinoma)
# [16] = T84 (large_intestine, adenocarcinoma)
# [17] = T98G (central_nervous_system, astrocytoma_Grade_IV)
# [18] = T778 (soft_tissue, well_differentiated)
# [19] = T-47D (breast, ductal_carcinoma)
# [20] = TE-1 (oesophagus, squamous_cell_carcinoma)
# [21] = TE-5 (oesophagus, squamous_cell_carcinoma)
# [22] = TE-6 (oesophagus, squamous_cell_carcinoma)
# [23] = TE-10 (oesophagus, squamous_cell_carcinoma)
# [24] = TE-11 (oesophagus, squamous_cell_carcinoma)
# [25] = TE-15 (oesophagus, squamous_cell_carcinoma)
# [26] = TEN (endometrium, clear_cell_carcinoma)
# [27] = TF-1 (haematopoietic_and_lymphoid_tissue)
# [28] = TF-1 (haematopoietic_and_lymphoid_tissue, acute_myeloid_leukaemia)
# [29] = THP-1 (haematopoietic_and_lymphoid_tissue, acute_myeloid_leukaemia)
smiles,measurement,setting,value
CC(C)[C@@]12C[C@@H](O)[C@@](C)(O1)[C@@H]1CC[C@@H](C)[C@H]1[C@@H]2OC(=O)/C=C/c1ccccc1 [Englerin B],AMAX,"SUM-52 (breast, NS)",-47.91
same,RESPONSE,"SUM-52 (breast, NS)",INTERMEDIATE
same,ACTIVITY_AREA,[1],28.78
same,AMAX,[1],-87.2
same,RESPONSE,[1],INTERMEDIATE
same,ACTIVITY_AREA,SUP-M2 cells,28.78
same,AMAX,SUP-M2 cells,-87.2
same,RESPONSE,SUP-M2 cells,INTERMEDIATE
same,ACTIVITY_AREA,[2],28.7
same,AMAX,[2],-50.84
same,RESPONSE,[2],INTERMEDIATE
same,ACTIVITY_AREA,SW480 (large_intestine),48.75
same,AMAX,SW480 (large_intestine),-46.99
same,RESPONSE,SW480 (large_intestine),INTERMEDIATE
same,ACTIVITY_AREA,[3],48.75
same,AMAX,[3],-46.99
same,RESPONSE,[3],INTERMEDIATE
same,ACTIVITY_AREA,SW620 (large_intestine),42.72
same,AMAX,SW620 (large_intestine),-83.79
same,RESPONSE,SW620 (large_intestine),INTERMEDIATE
same,ACTIVITY_AREA,[4],42.72
same,AMAX,[4],-83.79
same,RESPONSE,[4],INTERMEDIATE
same,ACTIVITY_AREA,SW837 (large_intestine),20.36
same,AMAX,SW837 (large_intestine),-33.56
same,RESPONSE,SW837 (large_intestine),INTERMEDIATE
same,ACTIVITY_AREA,[5],20.36
same,AMAX,[5],-33.56
same,RESPONSE,[5],INTERMEDIATE
same,ACTIVITY_AREA,SW948 (large_intestine),18.41
same,AMAX,SW948 (large_intestine),18.53
same,RESPONSE,SW948 (large_intestine),REFRACTORY
same,ACTIVITY_AREA,[6],18.41
same,AMAX,[6],18.53
same,RESPONSE,[6],REFRACTORY
same,ACTIVITY_AREA,[7],57.04
same,AMAX,[7],-39.35
same,RESPONSE,[7],INTERMEDIATE
same,ACTIVITY_AREA,[8],57.04
same,AMAX,[8],-39.35
same,RESPONSE,[8],INTERMEDIATE
same,ACTIVITY_AREA,SW 1271 (lung),115.89
same,AMAX,SW 1271 (lung),-47.08
same,RESPONSE,SW 1271 (lung),INTERMEDIATE
same,ACTIVITY_AREA,[9],115.89
same,AMAX,[9],-47.08
same,RESPONSE,[9],INTERMEDIATE
same,ACTIVITY_AREA,SW 1353 (bone),35.9
same,AMAX,SW 1353 (bone),-34.39
same,RESPONSE,SW 1353 (bone),INTERMEDIATE
same,ACTIVITY_AREA,"SW 1353 (bone, NS)",35.9
same,AMAX,"SW 1353 (bone, NS)",-34.39
same,RESPONSE,"SW 1353 (bone, NS)",INTERMEDIATE
same,ACTIVITY_AREA,SW1417 (large_intestine),21.32
same,AMAX,SW1417 (large_intestine),-56.28
same,RESPONSE,SW1417 (large_intestine),INTERMEDIATE
same,ACTIVITY_AREA,[10],21.32
same,AMAX,[10],-56.28
same,RESPONSE,[10],INTERMEDIATE
same,ACTIVITY_AREA,SW 1573 (lung),47.86
same,AMAX,SW 1573 (lung),-9.25
same,RESPONSE,SW 1573 (lung),REFRACTORY
same,ACTIVITY_AREA,[11],47.86
same,AMAX,[11],-9.25
same,RESPONSE,[11],REFRACTORY
same,ACTIVITY_AREA,[12],20.67
same,AMAX,[12],-42.77
same,RESPONSE,[12],INTERMEDIATE
same,ACTIVITY_AREA,SW 1990 (pancreas),26.12
same,AMAX,SW 1990 (pancreas),-47.9
same,RESPONSE,SW 1990 (pancreas),INTERMEDIATE
same,ACTIVITY_AREA,[13],26.12
same,AMAX,[13],-47.9
same,RESPONSE,[13],INTERMEDIATE
same,ACTIVITY_AREA,[14],53.05
same,AMAX,[14],-70.32
same,RESPONSE,[14],INTERMEDIATE
same,ACTIVITY_AREA,T24 (urinary_tract),30.61
same,AMAX,T24 (urinary_tract),-35.08
same,RESPONSE,T24 (urinary_tract),INTERMEDIATE
same,ACTIVITY_AREA,[15],30.61
same,AMAX,[15],-35.08
same,RESPONSE,[15],INTERMEDIATE
same,ACTIVITY_AREA,T84 (large_intestine),33.4
same,AMAX,T84 (large_intestine),-50.5
same,RESPONSE,T84 (large_intestine),INTERMEDIATE
same,ACTIVITY_AREA,[16],33.4
same,AMAX,[16],-50.5
same,RESPONSE,[16],INTERMEDIATE
same,ACTIVITY_AREA,T98G (central_nervous_system),28.89
same,AMAX,T98G (central_nervous_system),-38.16
same,RESPONSE,T98G (central_nervous_system),INTERMEDIATE
same,ACTIVITY_AREA,[17],28.89
same,AMAX,[17],-38.16
same,RESPONSE,[17],INTERMEDIATE
same,ACTIVITY_AREA,T778 (soft_tissue),40.16
same,AMAX,T778 (soft_tissue),-31.23
same,RESPONSE,T778 (soft_tissue),INTERMEDIATE
same,ACTIVITY_AREA,[18],40.16
same,AMAX,[18],-31.23
same,RESPONSE,[18],INTERMEDIATE
same,ACTIVITY_AREA,T-47D (breast),61.93
same,AMAX,T-47D (breast),-42.63
same,RESPONSE,T-47D (breast),INTERMEDIATE
same,ACTIVITY_AREA,[19],61.93
same,AMAX,[19],-42.63
same,RESPONSE,[19],INTERMEDIATE
same,ACTIVITY_AREA,TC-71 (bone),32.45
same,AMAX,TC-71 (bone),-61.62
same,RESPONSE,TC-71 (bone),INTERMEDIATE
same,ACTIVITY_AREA,"TC-71 (bone, NS)",32.45
same,AMAX,"TC-71 (bone, NS)",-61.62
same,RESPONSE,"TC-71 (bone, NS)",INTERMEDIATE
same,ACTIVITY_AREA,"TE 617.T (soft_tissue, NS)",23.8
same,AMAX,"TE 617.T (soft_tissue, NS)",-60.33
same,RESPONSE,"TE 617.T (soft_tissue, NS)",INTERMEDIATE
same,ACTIVITY_AREA,TE 617.T cells,23.8
same,AMAX,TE 617.T cells,-60.33
same,RESPONSE,TE 617.T cells,INTERMEDIATE
same,ACTIVITY_AREA,TE-1 (oesophagus),42.14
same,AMAX,TE-1 (oesophagus),-69.66
same,RESPONSE,TE-1 (oesophagus),INTERMEDIATE
same,ACTIVITY_AREA,[20],42.14
same,AMAX,[20],-69.66
same,RESPONSE,[20],INTERMEDIATE
same,ACTIVITY_AREA,TE-5 (oesophagus),27.7
same,AMAX,TE-5 (oesophagus),-50.48
same,RESPONSE,TE-5 (oesophagus),INTERMEDIATE
same,ACTIVITY_AREA,[21],27.7
same,AMAX,[21],-50.48
same,RESPONSE,[21],INTERMEDIATE
same,ACTIVITY_AREA,TE-6 (oesophagus),39.02
same,AMAX,TE-6 (oesophagus),-58.01
same,RESPONSE,TE-6 (oesophagus),INTERMEDIATE
same,ACTIVITY_AREA,[22],39.02
same,AMAX,[22],-58.01
same,RESPONSE,[22],INTERMEDIATE
same,ACTIVITY_AREA,TE-10 (oesophagus),20.84
same,AMAX,TE-10 (oesophagus),-31.79
same,RESPONSE,TE-10 (oesophagus),INTERMEDIATE
same,ACTIVITY_AREA,[23],20.84
same,AMAX,[23],-31.79
same,RESPONSE,[23],INTERMEDIATE
same,ACTIVITY_AREA,TE-11 (oesophagus),38.6
same,AMAX,TE-11 (oesophagus),-80.05
same,RESPONSE,TE-11 (oesophagus),INTERMEDIATE
same,ACTIVITY_AREA,[24],38.6
same,AMAX,[24],-80.05
same,RESPONSE,[24],INTERMEDIATE
same,ACTIVITY_AREA,TE-15 (oesophagus),18.14
same,AMAX,TE-15 (oesophagus),-57
same,RESPONSE,TE-15 (oesophagus),INTERMEDIATE
same,ACTIVITY_AREA,[25],18.14
same,AMAX,[25],-57
same,RESPONSE,[25],INTERMEDIATE
same,ACTIVITY_AREA,TEN (endometrium),11.94
same,AMAX,TEN (endometrium),-39.54
same,RESPONSE,TEN (endometrium),INTERMEDIATE
same,ACTIVITY_AREA,[26],11.94
same,AMAX,[26],-39.54
same,RESPONSE,[26],INTERMEDIATE
same,ACTIVITY_AREA,[27],37.19
same,AMAX,[27],-82.44
same,RESPONSE,[27],INTERMEDIATE
same,ACTIVITY_AREA,[28],37.19
same,AMAX,[28],-82.44
same,RESPONSE,[28],INTERMEDIATE
same,ACTIVITY_AREA,[29],72.35
same,AMAX,[29],-58.83
same,RESPONSE,[29],INTERMEDIATE
same,ACTIVITY_AREA,TOV-21G (ovary),52.76
same,AMAX,TOV-21G (ovary),-60.59
same,RESPONSE,TOV-21G (ovary),INTERMEDIATE
